Measured data: PubChem BioAssay AID1259405 (NCATS, 2018)

Test: 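Knock-downs that lift recombinant protein yield in hamster ovary cells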 (primary screen)
Cell system: Chinese hamster CHO-K1 ovary cells with stable secreted eGFP expression
Reagent: single siRNA against mouse genes, 0.8 pmol siRNA per well (2 µl of 400 nM stock)
Time to read-out: 3 days
Detection: 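Percent of the per-plate non-targeting control median for intracellular GFP per well by laser scanning cytometry and for cell viability by ATP luminescence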
Reading the numbers: GFP, % of control: higher = more GFP per well, higher productivity; viability (ATP), % of control: higher = more viable cells (more ATP)
Active means: 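Called active when intracellular GFP, relative to negative control, is at or above 120%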
The whole screen tested about 50,000 reagents; below is an unselected part. In the full data, about 4,000 (8%) are marked active. 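Mouse siRNA library applied to hamster cells; one well for each siRNA.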 Entries without a mark were called inactive. The numbers tell different reagents against one gene apart.

gene knocked down | reagent no. | GFP, % of control | viability (ATP), % of control
Tnfsf12 | 1 | 113 | 70.8
Tnfsf12 | 2 | 68.7 | 81.2
Tnfsf12 | 3 | 142 (active) | 145
Drc8 | 1 | 85.2 | 64.2
Drc8 | 2 | 116 | 58.1
Drc8 | 3 | 59.6 | 59.7
Slc33a1 | 1 | 51.1 | 104
Slc33a1 | 2 | 104 | 71.5
Slc33a1 | 3 | 89.5 | 68.3
Habp4 | 1 | 45.8 | 62.2
Habp4 | 2 | 98 | 83.7
Habp4 | 3 | 167 (active) | 81.6
Dmbt1 | 1 | 69 | 54.6
Dmbt1 | 2 | 84.2 | 88.7
Dmbt1 | 3 | 116 | 103
Arhgap26 | 1 | 112 | 109
Arhgap26 | 2 | 62.3 | 110
Arhgap26 | 3 | 72.5 | 68.9

Part of the list above, reformatted:
Tnfsf12 #1
- GFP, % of control: 113
- viability (ATP), % of control: 70.8

Tnfsf12 #2
- GFP, % of control: 68.7
- viability (ATP), % of control: 81.2

Tnfsf12 #3
- GFP, % of control: 142 (active)
- viability (ATP), % of control: 145

Drc8 #1
- GFP, % of control: 85.2
- viability (ATP), % of control: 64.2

Drc8 #2
- GFP, % of control: 116
- viability (ATP), % of control: 58.1

The results go on:
gene knocked down | reagent no. | GFP, % of control | viability (ATP), % of control
AI597479 | 1 | 60.3 | 54.8
AI597479 | 2 | 83.2 | 93.5
AI597479 | 3 | 73.3 | 80.7
Tmprss4 | 1 | 54.1 | 70.2
Tmprss4 | 2 | 62.3 | 71.5
Tmprss4 | 3 | 74.1 | 79.5
Or2ag19 | 1 | 63.7 | 37.9
Or2ag19 | 2 | 50.9 | 54.5
Or2ag19 | 3 | 67.9 | 54.8
Il17re | 1 | 94 | 96.1
Il17re | 2 | 50 | 43.2
Il17re | 3 | 103 | 87.1
Nanos3 | 1 | 35.5 | 47
Nanos3 | 2 | 19.1 | 35.6
Nanos3 | 3 | 41.5 | 44.4
Or5w10 | 1 | 27.1 | 23.4
Or5w10 | 2 | 63.4 | 61.3
Or5w10 | 3 | 77 | 84.4
